Results from patent US20210361735A1 (PAUL SCHERRER INSTITUT, priority 2017, published 2021).

Test: general procedure: Fmoc solid-phase peptide synthesis; rink amide MBHA LL resin; HATU, DIPEA
Conditions: whole synthesis

## DOTA[Nle15, Ala11-ψ[Tz]-Tyr12]-MG11
Scale 0.0394 mmol
  final purity (method not given): >99%
  isolated yield: 23.7%

## DOTA[Nle15, Asp16-ψ[Tz]-Phe17]-MG11
Scale 0.0379 mmol
  final purity (method not given): 98.5%
  isolated yield: 10.1%

## DOTA[Nle15, DGlu10-ψ[Tz]-Ala11]-MG11
Scale 0.0403 mmol
  final purity (method not given): >99%
  isolated yield: 12.5%

## DOTA[Nle15, Gly13-ψ[Tz]-Trp14]-MG11
Scale 0.0324 mmol
  final purity (method not given): 98.6%
  isolated yield: 12.5%

## DOTA[Nle15, Nle15-ψ[Tz]-Asp16]-MG11
Scale 0.0399 mmol
  final purity (method not given): >99%
  isolated yield: 76.3%

## DOTA[Nle15, Phe17-ψ[Tz]-H]-MG11
Scale 0.0511 mmol
  final purity (method not given): >99%
  isolated yield: 35.7%

## DOTA[Nle15, Trp14-ψ[Tz]-Nle15]-MG11
Scale 0.041 mmol
  final purity (method not given): 97%
  isolated yield: 61.8%

## DOTA[Nle^15, Ala^11-ψ[Tz]-Tyr^12, Trp^14-ψ[Tz]-Nle^15]MG11
Scale 0.0507 mmol
  final purity (method not given): >99%
  isolated yield: 25.0%

## DOTA[Nle^15, Ala^11-ψ[Tz]-Tyr^12-ψ[Tz]-Gly^13]MG11
Scale 0.0495 mmol
  final purity (method not given): 97.3%
  isolated yield: 5.9%

## DOTA[Nle^15, DGlu^10-ψ[Tz]-Ala^11-Tyr^12-ψ[Tz]-Gly^13]MG11
Scale 0.0528 mmol
  final purity (method not given): 97.9%
  isolated yield: 10.1%

## DOTA[Nle^15, DGlu^10-ψ[Tz]-Ala^11-ψ[Tz]-Tyr^12]MG11
Scale 0.0506 mmol
  final purity (method not given): 97.8%
  isolated yield: 10.6%

## DOTA[Nle^15, Tyr^12-ψ[Tz]-Gly^13-Trp^14-ψ[Tz]-Nle^15]-MG11
Scale 0.0466 mmol
  final purity (method not given): 97.0%
  isolated yield: 11.6%

## DOTA[Nle^15, Tyr^12-ψ[Tz]-Gly^13-ψ[Tz]-Trp^14]MG11
Scale 0.0506 mmol
  final purity (method not given): 98.2%
  isolated yield: 10.8%

## [Trp-ψ[Tz]-Nle]-PPF11N
Scale 0.0334 mmol
  final purity (method not given): >99%
  isolated yield: 20.9%

## [Tyr-ψ[Tz]-Gly]-PPF11N
Scale 0.0325 mmol
  final purity (method not given): 98.1%
  isolated yield: 19.6%

## {DOTA}-[dE]A[X2]W[Nle]DF-NH2 (SMILES CCCC[C@H](NC(=O)[C@H](Cc1c[nH]c2ccccc12)NC(=O)Cn1cc([C@H](Cc2ccc(O)cc2)NC(=O)[C@H](C)NC(=O)[C@@H](CCC(=O)O)NC(=O)CN2CCN(CC(=O)O)CCN(CC(=O)O)CCN(CC(=O)O)CC2)nn1)C(=O)N[C@@H](CC(=O)O)C(=O)N[C@@H](Cc1ccccc1)C(N)=O)
Scale 0.04101 mmol
  final purity (method not given): >99%
  isolated yield: 13.9%

Numbered stars: 1 amine (or outer) side, 2 acyl side, 3 side chain; on linkers, the order of the positions; unused ones are H or OH. Square brackets hold non-standard residues; d marks the D form. * marks the point of attachment. DOTA = O=C(O)CN1CCN(CC(=O)O)CCN(CC(=O)*)CCN(CC(=O)O)CC1; X2 = O=C(Cn1cc([C@H](Cc2ccc(O)cc2)N[*:1])nn1)[*:2]; Nle = CCCC[C@H](N)C(=O)O
